From ChEMBL document CHEMBL3988442, “University of Dundee, Small-Polar-MMV Screening Library” (2021).

The chains behind the UniProt entries cited, without tags or fusion partners.
UniProt E9BF75, entry or part of it: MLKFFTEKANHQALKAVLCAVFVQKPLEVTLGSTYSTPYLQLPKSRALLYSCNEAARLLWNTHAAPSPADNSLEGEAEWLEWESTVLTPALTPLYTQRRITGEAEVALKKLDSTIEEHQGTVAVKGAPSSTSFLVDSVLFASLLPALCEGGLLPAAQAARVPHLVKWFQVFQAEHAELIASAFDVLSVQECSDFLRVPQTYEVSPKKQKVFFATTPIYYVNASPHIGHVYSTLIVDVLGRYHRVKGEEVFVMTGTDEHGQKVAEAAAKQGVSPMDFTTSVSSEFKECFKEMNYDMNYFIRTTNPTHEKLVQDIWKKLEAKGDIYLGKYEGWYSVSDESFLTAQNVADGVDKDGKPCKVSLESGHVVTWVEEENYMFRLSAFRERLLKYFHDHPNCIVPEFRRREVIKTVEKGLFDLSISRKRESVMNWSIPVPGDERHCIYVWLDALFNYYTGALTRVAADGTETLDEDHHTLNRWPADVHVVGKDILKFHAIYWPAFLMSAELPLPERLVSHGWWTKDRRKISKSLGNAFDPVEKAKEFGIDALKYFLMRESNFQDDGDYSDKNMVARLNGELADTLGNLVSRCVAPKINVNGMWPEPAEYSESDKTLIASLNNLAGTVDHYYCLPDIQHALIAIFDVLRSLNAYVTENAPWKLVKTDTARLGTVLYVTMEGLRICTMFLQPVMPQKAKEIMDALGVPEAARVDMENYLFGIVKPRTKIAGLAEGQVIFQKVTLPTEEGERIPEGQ

Results are percentages, as filed. How 0% and 100% were set is not recorded. Most values in the screen are low, and negative values occur. The compounds are a random part of those screened.

LdMetRS: 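Primary screen of methionyl-tRNA synthetase; the read-out is not stated. Target: Methionyl-tRNA synthetase (putative), Leishmania donovani (UniProt E9BF75). The test concentration is not given. The values are filed as inhibition. About 68,000 compounds were tested under these conditions; 0.035% (about 24) showed 50% or more at least once.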
Mtb heat-shock: 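Assay on Mycobacterium tuberculosis, filed only as a heat shock assay from Cornell; the read-out is not stated. The concentration is filed as 10 mM, unlikely as a test dose, so the dose is not known. Higher reads as stronger inhibition (inferred: compounds with an IC50 in retests scored well above the rest). About 69,000 compounds were tested under these conditions; 1.4% (about 930) showed 50% or more at least once.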

Cc1cc2ncn(C(=O)N3CCOCC3)c2cc1C read LdMetRS: 12.77%; Mtb heat-shock: -3.733%.
Cc1nc(C(=O)N2CCCCC2c2ccc(CN(C)C)cc2)c(C)o1 (stereo not drawn) read LdMetRS: 8.242%; Mtb heat-shock: 8.168%.
CCOc1c(Br)cc(/C=C/c2ncc(C(=O)O)s2)cc1OC read LdMetRS: 10.83%; Mtb heat-shock: -7.557%.
Cc1ccc(CN2C[C@@H]3COC[C@@H](NS(C)(=O)=O)[C@@H]3C2)o1 read LdMetRS: 12.13%.
CCOCCN1CCN(Cc2nnc(-c3occc3C)o2)CC1CC (stereo not drawn) read LdMetRS: 17.08%; Mtb heat-shock: 19.5%.
Cc1noc(C)c1CNc1cccc(C(=O)N2CCCC(O)C2)c1 (stereo not drawn) read LdMetRS: 5.645%; Mtb heat-shock: -0.1085%.
CC(NC(=O)N(C)Cc1ccsc1)c1nncn1C (stereo not drawn) read LdMetRS: 7.865%; Mtb heat-shock: -6.977%.
[H][C@]12CN(CC3CC3)C(=O)[C@@]1([H])CN(S(C)(=O)=O)C2 read Mtb heat-shock: 30.04%.
COc1ccc(C(=O)N2CC(c3ccncc3)C2)c(OC)c1OC read LdMetRS: 11%; Mtb heat-shock: -12.6%.
Cn1cc(C2CCCN2Cc2csc(Cc3ccccc3)n2)cn1 (stereo not drawn) read LdMetRS: 34.08%; Mtb heat-shock: -1.812%.
CCOc1ncccc1NC(=O)NCC(O)c1ccc(OC)cc1 (stereo not drawn) read LdMetRS: 13.8%; Mtb heat-shock: -31.99%.
Cc1cccc(N2Cc3c(NC4CCCC4)ncnc3N(C)CC2=O)c1 read LdMetRS: 7.429%; Mtb heat-shock: 4.922%.
O=C(O)C(F)(F)F.[H][C@@]12CCC(=O)N(c3cnn(C)c3)[C@]1([H])CCN2C(=O)c1cscn1 read Mtb heat-shock: 0.9309%.
O=C(O)COc1ccccc1CN1CCCC1c1cnccn1 (stereo not drawn) read LdMetRS: 14.89%; Mtb heat-shock: 1.172%.
CC1COc2ccccc2N1C(=O)c1ccnc(-n2cncn2)c1 (stereo not drawn) read LdMetRS: 12.23%; Mtb heat-shock: -15.02%.
CCn1ncc(C(=O)N2CCCN(CCCc3ccccc3)CC2)c1C read LdMetRS: 12.06%; Mtb heat-shock: -12.74%.
Cn1cc(C(=O)NCCCN2CCCCCC2=O)c(-c2cccnc2)n1 read LdMetRS: 16.58%; Mtb heat-shock: 7.948%.
COCC(=O)N1CCC2(CC1)CN(CC1CC1)c1ccc(F)cc12 read LdMetRS: 15.84%; Mtb heat-shock: 21.65%.
Fc1ccc(CN2CCc3ncnc(C4CC4)c3CC2)cc1.O=C(O)C(F)(F)F read Mtb heat-shock: -3.018%.
CC(C)c1nc(C2CCCNC2)no1.Cl (stereo not drawn) read Mtb heat-shock: -23.78%.
CNC(=O)c1cc2c(nc1NCC(C)C)CCN(c1ccncn1)CC2.O=C(O)C(F)(F)F read Mtb heat-shock: -16.51%.
Cc1nn(C)c(Cl)c1CNCc1cccnc1N1CCN(C)CC1 read LdMetRS: 19.72%.
NCCc1cc(N2CCOCC2)nc(NC2CC2)n1 read LdMetRS: 13.95%.
CC(C)c1nncn1CCNC(=O)c1c(O)cc(F)cc1F read LdMetRS: 20.43%; Mtb heat-shock: -6.19%.
Cc1sc(Br)cc1S(=O)(=O)NCCN.Cl read Mtb heat-shock: -15.91%.
Cc1noc(C)c1CC(=O)NCCN1CCN(S(C)(=O)=O)CC1 read LdMetRS: 8.437%; Mtb heat-shock: 13.85%.
[H][C@@]12C[C@H](NC(=O)c3cccc4[nH]c(C)nc34)CN1CCN(C)C2 read Mtb heat-shock: 16.34%.
CC(C)(C)C(=O)N1CC[C@@H]2[C@H](CC1)N(S(C)(=O)=O)CCS2(=O)=O read LdMetRS: 16.35%.
CNC(=O)COC1COC2(CCN(c3ccc(C#N)cc3)CC2)C1 (stereo not drawn) read LdMetRS: 6.032%.
CC(=O)Nc1nc(C)c(S(=O)(=O)NCCc2cccnc2)s1 read LdMetRS: 8.495%; Mtb heat-shock: 3.007%.
Cc1cc(Nc2ccc3c(c2)CC(=O)N3)nc(C(C)C)n1 read LdMetRS: 17.06%; Mtb heat-shock: -29.14%.
O=C(O)C(F)(F)F.[H][C@]12CC[C@@]3(N=C(CC)N(CC4CC4)C3=O)[C@@]1([H])CN(CC(=O)N(C)C)C2 read Mtb heat-shock: 6.825%.
CC(C)(C)C(=O)NCC(=O)NC1CC(c2cccc(Cl)c2)C1 (stereo not drawn) read LdMetRS: 5.645%; Mtb heat-shock: -9.089%.

2 of the entries, repeated:

| Compound | LdMetRS | Mtb heat-shock |
|---|---|---|
| `Cc1cccc(N2Cc3c(NC4CCCC4)ncnc3N(C)CC2=O)c1` | 7.429 | 4.922 |
| `Cc1nc(C(=O)N2CCCCC2c2ccc(CN(C)C)cc2)c(C)o1` (stereo not drawn) | 8.242 | 8.168 |